Eight substances from patent publication US20040023884A1 (priority 1993, published 2004) can be followed below.

The data set in a line: peptide synthesis. Particulars: for purity (crude or final not stated): analytical reverse-phase HPLC, VYDAC C-18, 220 nm, main peak area %, electrospray ionization MS.

Where “and” joins values, the source holds several entries; their conditions need not be identical. Equal entries are not always repeated. Where a sequence shows no end group, the ends are not given.

On to QKRFLKKWKAQKRFLKKWKAQKRFLK, for which, where the note is “whole synthesis”, the “purity (crude or final not stated)” value was determined as 21%.

As for KWKVFKKIEK + 148-161, the “purity (crude or final not stated)” value (whole synthesis) amounted to 27%.

As to βAla-Nα,Nε-[Nα,Nε(BPI.13)1-Lys]Lys, the “purity (crude or final not stated)” value (whole synthesis) is reported as 49%.

For the substance KRFLKKWKAQKRFLKKWKAQKRFLK, the “purity (crude or final not stated)” value (whole synthesis) was found to be 14%.

With KSKVGWLIQLFHKK, the step yield (purification step, assuming desired peptide constituted 69% of starting material) is reported as 55%. Also, where the note is “whole synthesis, 220 nm”, the “crude HPLC purity” value is given as “about 69%” and the “final HPLC purity” value came out at 98%. For the same substance, the “purity (crude or final not stated)” value (whole synthesis, run 1) was 78% and 69%.

βAla-Nα,Nε-[Nα,Nε(BPI.2)1 -Lys]Lys: the “purity (crude or final not stated)” value (whole synthesis) turned out to be 54%.

Consider KWQLRSKGKIKFKA (KWQLRSKGKIKIFKA), for which, under “whole synthesis”, the “purity (crude or final not stated)” value was found to be 17%.

Regarding KKRAISFLGKKWQK, under “whole synthesis”, the “purity (crude or final not stated)” value worked out at 32%.
